For some of these results: Not every detail of the peptide structures is certain; ends, links or a residue may be inferred. For some of these results: At least one compound was matched to its structure with a doubt left. Ends that are not written are not given here.
Assays:
melanoma cells = conditions: mouse model; cited from earlier work
[1] = test system: peptide-loaded lymphoblastoid cell lines (LCL); test: 51Cr-release cytotoxicity assay with peptide-specific CD8+ CTL; type: cell-based, human; conditions: for Killing of heterologous peptide-loaded lymphoblastoid cell lines expressing the restricting HLA (A2.1 or B27) / Killing of heterologous peptide-loaded targets lacking the restricting HLA (A2.1 or B27): 51Cr release, peptide-specific CD8+ CTL; for Killing of peptide-loaded autologous lymphoblastoid cell lines by peptide-specific CD8+ CTL: 5 hr 51Cr release, peptide-free control LCL not killed
Protocol: Monocyte-derived dendritic cells were generated from peripheral blood drawn from normal adult donors of the appropriate HLA type. Adherent monocytes were cultured in AIM-V (Gibco-BRL) supplemented with GM-CSF and IL-4 according to standard techniques (Santin et al, 2000, 2001). After 5-6 days, dendritic cell maturation was induced by addition of PGE2, IL-1β and TNFα for a further 48 h.
Mature dendritic cells were loaded with peptide (2×10^6 dendritic cells with 50 μg/ml peptide in 1 ml serum-free AIM-V medium for 2 h at 37° C.) and washed once prior to culture with 1×10^6/ml peripheral blood mononuclear cells (PBMC) in AIM-V or AIM-V plus 5% human AB serum. The PBMC:DC ratio was between 20:1 and 30:1. After 7 days, responder T cells were restimulated with peptide-loaded, irradiated autologous dendritic cells or peripheral blood mononuclear cells at responder:stimulator ratios between 10:1 and 20:1 or 1:1 and 1:10 respectively. At this point, cultures were supplemented with recombinant human IL-2 (10-100 U/ml), and fed with 50-75% changes of fresh medium plus IL-2 every 2-4 days. T cell lines were established and maintained by peptide restimulation every 14-21 days. Responder CD8^+T cells were purified by positive selection with anti-CD8-coupled magnetic beads (Dynal, Inc.) after the 2nd or 3rd antigen stimulation.
Peptide-specific cytotoxicity was tested in standard 5-6 h microwell ^51Cr-release assays (Nazaruk et al, 1998). Autologous EBV-transformed lymphoblastoid cell lines (LCL) were loaded with peptide (50 μg/ml, 1 h at 37° C.) and subsequently ^51Cr-labeled (50 μCi in 200-300 μl, 1 h at 37° C.). Peptide-loaded ^51Cr-labeled LCL were incubated with CD8^+T cells at effector-target ration between 5:1 and 1.25:1. Cytotoxicity was recorded as percentage ^51Cr released into culture supernatants.

K562 cells = test: 51Cr-release cytotoxicity assay with peptide-specific CD8+ CTL, NK-sensitive targets; type: cell-based, human
HLA A2.1 = target: T1, HLA A2.1 (Homo sapiens, UniProt P04439, D140Y/D185E/D98H/E176V/E277Q/G131W/G231S/I119V/I121R/I166T/I218V/L300P/L318F/N151K/N90K/P208A/P217A/Q86G/Q94H/R138H/R169H/T345S); test: HLA A2.1 binding: upregulation of A2.1 surface expression in T2 cells, flow cytometry; type: cell-based; conditions: data not shown
T1 construct: express low endogenous HLA class I levels due to inability to load peptide; endogenous in cells; host or cells: T2 cells

Compound | Metastatic potential of melanoma cells (melanoma cells) | Killing of heterologous peptide-loaded lymphoblastoid cell lines expressing the restricting HLA (A2.1 or B27) [1] | Killing of heterologous peptide-loaded targets lacking the restricting HLA (A2.1 or B27) [1] | Killing of peptide-loaded autologous lymphoblastoid cell lines by peptide-specific CD8+ CTL [1] | Lysis of natural killer-sensitive K562 cells by peptide-specific CD8+ CTL (K562 cells) | HLA A2.1 binding revealed by upregulation of A2.1 expression in T2 cells (HLA A2.1)
CNC(=O)[C@H](Cc1ccccc1)NC(=O)[C@H](CC(C)C)[C@H](CSc1cccs1)C(=O)NO [batimastat] | reduced |  |  |  |  | 
GRWPWQVSL [GRWPWQVSL] |  | could kill | failed to recognize | killed | not lysed | 
SLGRWPWQV [SLGRWPWQV] |  | efficiently killed | not killed | killed | not lysed | HLA A2.1-binding peptide
